According to the supplement of paper PMC12823440, “Inhibitors supercharge kinase turnover through native proteolytic circuits” (Nature, 2025):
This is one part of the list. The calls rarely recur for the same compound in another form.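 Kinases were expressed as nanoluciferase fusions in K562 cells and luminescence was read every 4 h between 2 and 18 h as percent of control, DMSO set to 100% and a positive control to 0%. A time point counts as decreased when the signal drops significantly (2 sigma). The hit call is the authors' own, does not follow from the count of time points alone, and its rule is not shown.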

Amino acid sequences for entries named in this document (tags omitted). A change or cut given only in a name is not applied to a line headed by its entry.
UniProt P53350, whole entry: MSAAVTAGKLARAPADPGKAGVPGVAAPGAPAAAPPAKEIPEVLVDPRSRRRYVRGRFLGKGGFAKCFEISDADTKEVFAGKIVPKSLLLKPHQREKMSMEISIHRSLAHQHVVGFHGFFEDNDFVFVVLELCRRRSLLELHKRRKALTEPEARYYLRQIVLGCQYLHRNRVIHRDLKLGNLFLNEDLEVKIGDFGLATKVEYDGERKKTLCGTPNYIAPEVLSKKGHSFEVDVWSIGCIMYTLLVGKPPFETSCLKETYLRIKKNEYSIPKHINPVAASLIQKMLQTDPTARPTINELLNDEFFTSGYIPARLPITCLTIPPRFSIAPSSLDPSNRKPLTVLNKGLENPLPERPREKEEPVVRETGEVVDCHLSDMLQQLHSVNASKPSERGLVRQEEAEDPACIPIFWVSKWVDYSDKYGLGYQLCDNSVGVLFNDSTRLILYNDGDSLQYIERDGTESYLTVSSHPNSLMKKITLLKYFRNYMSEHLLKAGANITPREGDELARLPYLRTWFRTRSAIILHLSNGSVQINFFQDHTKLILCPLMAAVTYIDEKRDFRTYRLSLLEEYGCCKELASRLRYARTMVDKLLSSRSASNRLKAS
UniProt P49137, whole entry, looked up: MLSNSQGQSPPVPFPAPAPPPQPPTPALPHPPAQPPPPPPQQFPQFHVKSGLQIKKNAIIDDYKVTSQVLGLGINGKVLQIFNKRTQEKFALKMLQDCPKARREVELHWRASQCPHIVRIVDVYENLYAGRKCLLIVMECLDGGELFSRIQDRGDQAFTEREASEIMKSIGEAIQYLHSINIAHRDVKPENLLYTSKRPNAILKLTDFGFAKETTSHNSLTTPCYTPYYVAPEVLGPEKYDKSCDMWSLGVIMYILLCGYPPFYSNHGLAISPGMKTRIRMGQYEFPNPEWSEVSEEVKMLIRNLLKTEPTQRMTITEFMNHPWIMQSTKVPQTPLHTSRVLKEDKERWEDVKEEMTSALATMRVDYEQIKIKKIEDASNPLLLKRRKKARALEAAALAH
UniProt P14616: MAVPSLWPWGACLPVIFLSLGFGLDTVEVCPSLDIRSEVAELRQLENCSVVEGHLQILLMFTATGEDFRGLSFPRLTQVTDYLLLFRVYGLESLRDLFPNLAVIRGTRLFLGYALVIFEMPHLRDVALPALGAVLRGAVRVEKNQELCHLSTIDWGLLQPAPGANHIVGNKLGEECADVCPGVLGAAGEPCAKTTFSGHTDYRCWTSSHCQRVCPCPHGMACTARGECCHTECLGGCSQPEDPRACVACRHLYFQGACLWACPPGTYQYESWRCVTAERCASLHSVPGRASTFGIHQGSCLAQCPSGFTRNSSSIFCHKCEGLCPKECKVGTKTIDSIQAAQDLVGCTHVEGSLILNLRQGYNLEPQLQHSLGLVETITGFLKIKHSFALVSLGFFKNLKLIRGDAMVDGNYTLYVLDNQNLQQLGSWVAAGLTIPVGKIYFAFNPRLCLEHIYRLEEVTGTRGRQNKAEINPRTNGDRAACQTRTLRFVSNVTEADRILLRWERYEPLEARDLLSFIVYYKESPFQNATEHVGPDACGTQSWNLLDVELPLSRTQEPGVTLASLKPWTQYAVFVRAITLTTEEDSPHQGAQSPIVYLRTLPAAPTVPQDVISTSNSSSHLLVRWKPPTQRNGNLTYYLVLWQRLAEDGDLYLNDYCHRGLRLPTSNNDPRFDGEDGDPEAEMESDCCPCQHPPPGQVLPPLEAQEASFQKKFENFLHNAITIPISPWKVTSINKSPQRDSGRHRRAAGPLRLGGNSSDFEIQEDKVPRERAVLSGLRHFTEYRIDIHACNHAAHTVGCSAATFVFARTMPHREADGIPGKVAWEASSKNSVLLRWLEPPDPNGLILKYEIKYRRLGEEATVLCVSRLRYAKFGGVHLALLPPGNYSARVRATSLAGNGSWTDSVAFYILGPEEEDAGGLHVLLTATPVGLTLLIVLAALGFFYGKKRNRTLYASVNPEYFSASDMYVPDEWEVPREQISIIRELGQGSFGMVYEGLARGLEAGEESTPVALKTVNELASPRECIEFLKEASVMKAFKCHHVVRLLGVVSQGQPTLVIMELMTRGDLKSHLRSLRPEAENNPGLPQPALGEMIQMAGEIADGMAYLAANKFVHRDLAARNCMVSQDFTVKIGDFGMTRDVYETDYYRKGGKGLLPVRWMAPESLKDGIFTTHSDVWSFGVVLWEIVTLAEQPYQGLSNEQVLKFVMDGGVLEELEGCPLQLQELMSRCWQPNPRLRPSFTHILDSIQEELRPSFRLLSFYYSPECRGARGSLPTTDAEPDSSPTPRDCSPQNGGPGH
UniProt P07948: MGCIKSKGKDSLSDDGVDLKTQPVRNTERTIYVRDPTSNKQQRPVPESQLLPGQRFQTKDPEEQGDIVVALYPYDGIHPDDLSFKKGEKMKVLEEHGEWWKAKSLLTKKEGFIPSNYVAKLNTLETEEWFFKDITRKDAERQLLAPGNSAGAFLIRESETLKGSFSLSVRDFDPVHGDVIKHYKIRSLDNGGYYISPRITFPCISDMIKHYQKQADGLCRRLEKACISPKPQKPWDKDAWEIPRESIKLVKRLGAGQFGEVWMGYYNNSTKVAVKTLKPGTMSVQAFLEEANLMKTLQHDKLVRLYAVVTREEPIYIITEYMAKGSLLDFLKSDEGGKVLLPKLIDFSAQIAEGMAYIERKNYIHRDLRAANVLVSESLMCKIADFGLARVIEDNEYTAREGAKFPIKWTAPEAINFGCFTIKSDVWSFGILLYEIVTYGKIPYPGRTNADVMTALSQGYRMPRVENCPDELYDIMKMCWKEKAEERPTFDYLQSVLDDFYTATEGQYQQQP

Assays:
Test in all cases: number of time points (of 5) at which kinase-Nluc abundance scored as decreased, DMSO-normalised (count); higher = more persistent destabilization
[1] = compound: C#Cc1cccc(Nc2ncnc3cc(OCCOC)c(OCCO)cc23)c1 [Desmethyl Erlotinib (hydrochloride)]; settings: 10 µM; K562; 2-18 h
[2] = compound: C#Cc1cccc(Nc2ncnc3cc(OCCOC)c(OCCO)cc23)c1 [Desmethyl Erlotinib]; settings: 10 µM; K562; 2-18 h
[3] = compound: C#Cc1cccc(Nc2ncnc3cc(OCCOC)c(OCCOC)cc23)c1 [Erlotinib (Hydrochloride)]; settings: 10 µM; K562; 2-18 h
[4] = compound: C#Cc1cccc(Nc2ncnc3cc(OCCOC)c(OCCOC)cc23)c1 [Erlotinib]; settings: 10 µM; K562; 2-18 h
[5] = compound: C#Cc1cccc(Nc2ncnc3cc4c(cc23)OCCOCCOCCO4)c1 [Icotinib (Hydrochloride)]; settings: 10 µM; K562; 2-18 h
[6] = compound: C#Cc1cccc(Nc2ncnc3cc4c(cc23)OCCOCCOCCO4)c1 [Icotinib]; settings: 10 µM; K562; 2-18 h
[7] = compound: C=CC(=O)N1CCN(c2ncnc3c(F)c(-c4c(O)cccc4F)c(Cl)cc23)CC1; settings: K562, 2-18 h
[8] = compound: C=CC(=O)Nc1cc(Nc2ncc(C(=O)OC(C)C)c(-c3cn(C)c4ccccc34)n2)c(OC)cc1N(C)CCN(C)C [Mobocertinib (succinate)]; settings: 10 µM; K562; 2-18 h
[9] = compound: C=CC(=O)Nc1cc(Nc2ncc(C(=O)OC(C)C)c(-c3cn(C)c4ccccc34)n2)c(OC)cc1N(C)CCN(C)C [Mobocertinib]; settings: 10 µM; K562; 2-18 h
[10] = compound: C=CC(=O)Nc1cc(Nc2nccc(-c3cn(C)c4ccccc34)n2)c(OC)cc1N(C)CCN(C)C [Osimertinib (dimesylate)]; settings: 2.5 µM; K562; 2-18 h
[11] = compound: C=CC(=O)Nc1cc(Nc2nccc(-c3cn(C)c4ccccc34)n2)c(OC)cc1N(C)CCN(C)C [Osimertinib mesylate]; settings: 2.5 µM; K562; 2-18 h
[12] = compound: C=CC(=O)Nc1cc(Nc2nccc(-c3cn(C)c4ccccc34)n2)c(OC)cc1N(C)CCN(C)C [Osimertinib]; settings: 2.5 µM; K562; 2-18 h
[13] = compound: C=CC(=O)Nc1cc(Nc2nccc(-c3cn(C4CC4)c4ccccc34)n2)c(OC)cc1N(C)CCN(C)C [Almonertinib (hydrochloride)]; settings: 2.5 µM; K562; 2-18 h
[14] = compound: C=CC(=O)Nc1cc(Nc2nccc(-c3cn(C4CC4)c4ccccc34)n2)c(OC)cc1N(C)CCN(C)C [Almonertinib]; settings: 2.5 µM; K562; 2-18 h
[15] = compound: C=CC(=O)Nc1cc2c(Nc3ccc(F)c(Cl)c3)ncnc2cc1C#CC(C)(C)N1CCN(C)CC1 [AV-412 (free base)]; settings: 2.5 µM; K562; 2-18 h
[16] = compound: C=CC(=O)Nc1cc2c(Nc3ccc(F)c(Cl)c3)ncnc2cc1C#CC(C)(C)N1CCN(C)CC1; settings: 2.5 µM; K562; 2-18 h
[17] = compound: CC(=O)N[C@H](Cc1ccc(O)cc1)C(=O)N[C@H](CCCN=C(N)N)C(=O)N[C@H](Cc1ccccc1)C(N)=O; settings: 10 µM; K562; 2-18 h
[18] = compound: CC(=O)Nc1cccc(-n2c(=O)n(C3CC3)c(=O)c3c(Nc4ccc(I)cc4F)n(C)c(=O)c(C)c32)c1 [Trametinib (DMSO solvate)]; settings: 10 µM; K562; 2-18 h
[19] = compound: C/C=C1\C(=O)C[C@H]2[C@@H]3CCC4=CC(=O)CC[C@]4(C)[C@H]3CC[C@]12C [(Z)-Guggulsterone]; settings: 10 µM; K562; 2-18 h
[20] = compound: C/C=C1\C(=O)C[C@H]2[C@@H]3CCC4=CC(=O)CC[C@]4(C)[C@H]3CC[C@]12C [Guggulsterone]; settings: 10 µM; K562; 2-18 h

Row | Target | number of time points [1] | number of time points [2] | number of time points [3] | number of time points [4] | number of time points [5] | number of time points [6] | number of time points ([7]; 2.5 µM) | number of time points ([7]; 10 µM) | number of time points [8] | number of time points [9] | number of time points [10] | number of time points [11] | number of time points [12] | number of time points [13] | number of time points [14] | number of time points [15] | number of time points [16] | number of time points [17] | number of time points [18] | number of time points [19] | number of time points [20]
1 | PLK1 (UniProt P53350) | 0 | 0 | 0 | 0 | 0 | 0 | 0 | 0 | 0 | 0 | 0 | 0 | 0 | 0 | 0 | 0 | 0 | 0 | 0 | – | –
2 | MAPKAPK2 (UniProt P49137) | 0 | 0 | 0 | 0 | 0 | 0 | 0 | 0 | 0 | 0 | 0 | 0 | 0 | 0 | 0 | 0 | 0 | 0 | 0 | 0 | 0
3 | INSRR (UniProt P14616) | 0 | 0 | 0 | 0 | 0 | 0 | 0 | 0 | 0 | 0 | 0 | 2 | 0 | 0 | 0 | 0 | 0 | 0 | 0 | 0 | 0
4 | LYN (UniProt P07948) | 0 | 0 | 0 | 0 | 0 | 0 | 0 | 0 | 0 | 0 | 0 | 0 | 0 | 0 | 0 | 0 | 0 | 0 | 0 | 0 | 0
